In paper PMC8954747 (Viruses, 2022) one finds binding data, which are given here for one molecule.

The chains behind the UniProt entries cited, without tags or fusion partners. Residues count along the entry.
UniProt Q14160, residues 1099-1203: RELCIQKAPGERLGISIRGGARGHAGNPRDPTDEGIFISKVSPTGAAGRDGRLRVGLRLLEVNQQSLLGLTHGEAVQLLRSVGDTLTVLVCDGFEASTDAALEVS

The target in the experiment is human Scribble (SCRIB) PDZ4 domain (residues 1099-1203) (human) (UniProt Q14160). Description: ITC; both purified. (In general: In ITC the heat of successive injections is recorded.)

These are yes or no findings as the source states them, for the method shown.

Turning to KMARTIESKV [NS1 ESKV PBM peptide KMARTIESKV (H5N1 A/chicken/Hubei/327/2004), 10-mer], the binding entry is reported as “no binding (tested: peptide 900 µM, PDZ domain ~75 µM)”.
